# Experimental data taken from US11419916B2, “Methods and compositions for inducing differentiation of human brown adipocyte progenitors” (Energesis Pharmaceuticals, Inc., priority 2014, dated 2022).
# For at least one compound, name, drawing or mass did not settle the structure.
# Tests used:
# [1] = system: CD31-cells (brown adipocyte progenitors); assay: Quantification of UCP1 protein by immunohistochemistry (IHC); assay type: cell-based, human; conditions: for UCP1 protein signal (IHC), differentiation of brown adipocyte progenitors into brown adipocytes: total intensity of UCP1 signal normalized to cell number
# Procedure: Differentiation of brown adipocyte progenitors into brown adipocytes can be detected through quantification of UCP1 protein by immunohistochemistry (IHC).
# Culturing and differentiation of CD31-cells into brown adipocytes were performed using adipogenic differentiation medium lacking (Minimal Differentiation Medium, MDM) or containing 1 μM rosiglitazone (Reference Differentiation Medium, RDM). After 15 days of differentiation cells were fixed with 4% Paraformaldehyde PBS pH 7.4, and incubated with a UCP1 antibody (Abcam ab23841) and Alexafluor 488 goat anti-rabbit antibody to quantify relative UCP1 levels (green) according to standard protocols. Prior to fixation of cells, nuclei were labeled with 5 μM DAPI (blue) for 10 minutes. Each treatment condition was evaluated in triplicate in a 96-well plate corresponding to approximately 360-480 cells for each data point in total. The InCell 1000 Developer Toolbox software was used to develop an automated cell detection script to measure UCP1 signal intensity, using the nuclei and cytoplasm detection algorithms. As a readout, total intensity of UCP1 signal within the cell was used, normalized to cell number.
# CD31-cells = assay: Light microscopic photos of cell morphology, brown adipocyte differentiation; assay type: cell-based, human; conditions: FIGS. 23A-23H
# Procedure: Cells were seeded at 10,000 per cm^2 in 0.2% gelatin coated plates (48-well tissue culture, Chemglass #CLS-3500-048), cultured until confluency (2-4 days) at 37° C. in Endothelial cell growth medium-2 (EGM2) (BulletKit growth medium, Lonza #CC-3162) and until differentiation (10-16 more days). After 2 or 3 days in EGM2 medium the cells were induced to differentiate by replacing the medium with an adipogenic medium, which is a modification of the adipogenic medium described by Rodriguez et al. and may or may not contain a differentiation inducing agent (e.g., PPARγ agonist). The MDM described above contains: DMEM/Ham's F-12 50/50 Mix (3.151 g/l, 17.5 mM D-glucose, […]) (Cellgro #10-090-CV), 5 μg/ml (0.86 μM) insulin, 1 μM dexamethasone, 100 μM 3-isobutyl-1-methylxanthine, 0.2 nM 3,3′,5-triiodo-L-thyronine, 10 μg/ml (127 nM) transferrin, and 1% penicillin-streptomycin. If rosiglitazone is used as a differentiation-inducing agent, it can be supplied at 1 μM or any other concentration sufficient to induce differentiation of BAT progenitor cells into adipocytes.
# Pictures of cells were taken using a hand-held digital camera (Nikon Coolpix 950) and inverted microscope (Nikon TMS) used for cell culture observations; images were optimized using Adobe Photoshop Elements 8 functions for Auto Contrast and Auto Levels.
Compound,"UCP1 protein signal (IHC), differentiation of brown adipocyte progenitors into brown adipocytes [1]","UCP1 protein expression (IHC, FITC) and differentiation into brown adipocytes ([1]; 1 μM, CD31-cells differentiated for 8 days in minimal differentiation medium (MDM), FIG. 20A)",brown adipocyte differentiation (light microscopy) (CD31-cells)
CCOC(=O)C1=C(C)NC(C)=C(C(=O)OC)C1c1cccc(Cl)c1Cl (stereo not shown) [Felodipine],identified using this technique,,
Nc1cc(N2CCCCC2)nc(N)[n+]1[O-] [Minoxidil],identified using this technique,,
CN(CCOc1ccc(CC2SC(=O)NC2=O)cc1)c1ccccn1 (stereo not shown) [rosiglitazone],,differentiate profoundly into brown adipocytes expressing high levels of UCP1,promote brown adipocyte formation
